Reference: US20250122255A1
Substitutions are numbered along the chain they refer to. These are yes or no findings as the source states them, for the method shown. Binding seen in cells or lysates may run through a third protein. These calls come from enrichment with a bait or labelling near it, and not all partners need be listed. Tags and fused reporters may be left off the sequences shown.

How the values were obtained:
[1] = target: PP4R3β, regulatory subunit of the protein phosphatase 4 (PP4) complex (human) (UniProt Q5MIZ7); experiment: affinity purification-mass spectrometry, COV318 cells expressing V5-tagged CT45
[2] = target: T1, PP4R3α, regulatory subunit of the protein phosphatase 4 (PP4) complex (human) (UniProt Q6IN85); experiment: as above
T1 sequence (looked up): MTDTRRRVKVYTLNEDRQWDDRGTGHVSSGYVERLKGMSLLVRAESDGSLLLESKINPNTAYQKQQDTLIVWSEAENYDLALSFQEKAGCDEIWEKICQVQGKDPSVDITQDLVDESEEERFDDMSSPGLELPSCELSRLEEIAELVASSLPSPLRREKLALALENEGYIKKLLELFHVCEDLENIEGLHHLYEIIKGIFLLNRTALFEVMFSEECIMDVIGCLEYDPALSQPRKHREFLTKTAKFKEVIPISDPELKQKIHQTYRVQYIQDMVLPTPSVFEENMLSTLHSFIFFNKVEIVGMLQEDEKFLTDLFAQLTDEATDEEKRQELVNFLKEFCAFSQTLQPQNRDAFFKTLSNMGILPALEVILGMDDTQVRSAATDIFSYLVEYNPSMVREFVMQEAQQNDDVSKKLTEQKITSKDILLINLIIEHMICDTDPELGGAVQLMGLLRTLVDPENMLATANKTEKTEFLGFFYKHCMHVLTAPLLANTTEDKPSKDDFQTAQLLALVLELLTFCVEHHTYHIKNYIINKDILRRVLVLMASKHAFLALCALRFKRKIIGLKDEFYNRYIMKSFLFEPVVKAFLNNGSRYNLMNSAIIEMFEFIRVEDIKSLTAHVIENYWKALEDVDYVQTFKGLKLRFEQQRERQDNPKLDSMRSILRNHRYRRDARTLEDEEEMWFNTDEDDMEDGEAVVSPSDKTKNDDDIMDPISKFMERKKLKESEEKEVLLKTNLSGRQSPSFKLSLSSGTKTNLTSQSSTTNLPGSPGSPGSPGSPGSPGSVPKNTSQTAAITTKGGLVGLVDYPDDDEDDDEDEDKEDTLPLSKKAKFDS

[3] = target: PP4R3β, regulatory subunit of the protein phosphatase 4 (PP4) complex (human) (UniProt Q5MIZ7); experiment: affinity purification-mass spectrometry (interaction proteomics), OVCAR-5 and COV318 cells, against tag-alone control
[4] = target: T1, PP4R3α, regulatory subunit of the protein phosphatase 4 (PP4) complex (human); experiment: as above
[5] = target: PP4R3β, regulatory subunit of the protein phosphatase 4 (PP4) complex (human) (UniProt Q5MIZ7); experiment: affinity purification-mass spectrometry, OVCAR-5 cells expressing Flag-tagged CT45
[6] = target: T1, PP4R3α, regulatory subunit of the protein phosphatase 4 (PP4) complex (human); experiment: as above

Measured: binding

B1: C-terminally tagged CT45A5 (V5 tag) (protein, not shown: small tags and cut ends)
chain: MTDKTEKVAVDPETVFKRPRECDSPSYQKRQRMALLARKQGAGDSLIAGSAMSKEKKLMTGHAIPPSQLDSQIDDFTGFSKDGMMQKPGSNAPVGGNVTSSFSGDDLECRETASSPKSQREINADIKRKLVKELRCVGQKYEKIFEMLEGVQGPTAVRKRFFESIIKEAARCMRRDFVKHLKKKLKRMI
binds: [1] | [2] | [3] | [4]

B2: N-terminally tagged CT45A1 (3xFLAG tag) (protein, not shown: small tags and cut ends)
chain: B1 chain with E55A, G83R
binds: [5] | [6]
